Test [1] concerns the target mouse CTLA-4 (WT, full length) (mouse) (UniProt P09793). Briefly: co-immunoprecipitation with anti-CTLA-4 from cotransfected JTAg cells, immunoblot. For orientation: Immunoblotting shows a protein as a band on a membrane.
Test [2] has the same target. Briefly: co-immunoprecipitation with CTLA-4 mAb from cotransfected JTAg cells treated with DMSO, PP2 or PP3, immunoblot (FIG. 12).

Protein sequences, listed by entry. Tags and fused reporters are not part of them. Lines headed by an entry give the natural chain unless they say otherwise; changes in a name come on top. Residues count along the entry.
UniProt P09793, residues 36-223: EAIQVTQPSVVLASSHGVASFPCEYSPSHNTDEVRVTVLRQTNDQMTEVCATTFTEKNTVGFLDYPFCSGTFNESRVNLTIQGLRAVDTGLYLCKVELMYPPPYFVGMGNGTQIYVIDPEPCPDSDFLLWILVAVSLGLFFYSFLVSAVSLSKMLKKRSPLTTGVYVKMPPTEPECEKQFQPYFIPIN
UniProt P24723: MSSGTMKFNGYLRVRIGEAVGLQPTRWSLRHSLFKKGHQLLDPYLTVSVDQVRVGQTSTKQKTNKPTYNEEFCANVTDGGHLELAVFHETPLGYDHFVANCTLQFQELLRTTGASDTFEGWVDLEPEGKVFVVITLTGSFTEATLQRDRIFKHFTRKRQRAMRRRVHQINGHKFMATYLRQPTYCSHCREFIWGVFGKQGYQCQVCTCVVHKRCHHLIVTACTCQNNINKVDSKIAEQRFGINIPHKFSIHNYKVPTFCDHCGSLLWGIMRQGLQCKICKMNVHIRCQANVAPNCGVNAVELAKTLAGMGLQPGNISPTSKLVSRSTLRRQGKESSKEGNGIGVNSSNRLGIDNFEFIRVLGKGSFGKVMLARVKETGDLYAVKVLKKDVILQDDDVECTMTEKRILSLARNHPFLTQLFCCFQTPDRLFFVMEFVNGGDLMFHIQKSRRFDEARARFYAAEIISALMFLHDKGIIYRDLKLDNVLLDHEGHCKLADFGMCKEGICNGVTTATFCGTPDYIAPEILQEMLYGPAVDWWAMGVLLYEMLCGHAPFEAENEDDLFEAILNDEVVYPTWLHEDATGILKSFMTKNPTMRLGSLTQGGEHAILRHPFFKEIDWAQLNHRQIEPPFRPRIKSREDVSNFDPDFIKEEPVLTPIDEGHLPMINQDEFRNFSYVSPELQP

These are yes or no findings as the source states them, for the method shown. Binding seen in cells or lysates may run through a third protein. Some entries that bind do so weakly or less than the wild type.

Regarding “Xpress-tagged WT PKCη (full-length human Prkch) (from UniProt P24723 1-683) (enzyme)”, the binding result in test [1] and in test [2] was “binds” in each case.
